# Reference: paper PMC9203742 (Nature Communications, 2022)
# “And” between values parts separate entries of the source, which are not always exact repeats. Equal entries are not always repeated. This continues a long series; more values of the same kind are listed elsewhere.
# Tests used:
# Type in all cases: cell-based, mouse
# [1] = test system: Purkinje cells in cerebellar slices from mGlu1^+/+ mice; assay: chemLTD recording (PF-EPSC) in Purkinje cells of acute cerebellar slices, mGlu1^+/+ mice; settings: individual cells
# Protocol: (§1) Sagittal cerebellar slices were cut with a microslicer (Linear slicer Pro7; DOSAKA EM) in cutting solution buffer and then incubated in ACSF gassed with 5% CO2 and 95% O2 at room temperature.
# (§2) Whole-cell patch-clamp recordings were made from visually identified Purkinje cells using a 60× water-immersion objective attached to an upright microscope (BX51WI, Olympus) at room temperature, as described previously. […] Picrotoxin (100 µM; Sigma) was always added to the saline to block inhibitory synaptic transmission.
# (§3) To evoke EPSCs derived from CF (CF-EPSCs) and PF (PF-EPSCs) inputs onto Purkinje cells, square pulses were applied through a stimulating electrode placed on the granular layer and the molecular layer (50 µm away from the pial surface), respectively. The selective stimulation of CFs and PFs was confirmed by the paired-pulse depression (PPD) and paired-pulse facilitation (PPF) of EPSC amplitudes at a 50-ms interstimulus interval (ISI), respectively.
# (§4) For the LTD sessions, PF-EPSCs were recorded successively at a frequency of 0.1 Hz from Purkinje cells clamped at –80 mV. After a stable PF-EPSC amplitude had been observed for at least 5 min, a conjunctive stimulation that consisted of 30 single PF stimuli together with a 200 ms depolarizing pulse from a holding potential of –60 to +20 mV was applied for LTD induction.
# (§5) To chemically induce LTD (chemLTD), 50 µM (S)-3,5-dihydroxyphenylglycine (DHPG) or 1 µM Pd(sulfo-bpy) was applied for 10 min in a current-clamp mode. We often observed a transient decrease in PF-EPSC amplitude after the application of each drug probably because Purkinje cells under current-clamp conditions excite spontaneously to suppress presynaptic function through the retrograde signaling. Access resistances were monitored every 10 s by measuring the peak currents in response to 2 mV, 50-ms hyperpolarizing steps throughout the experiments; the measurements were discarded if the resistance changed by >20% of its original value. The normalized EPSC amplitude on the ordinate represents the EPSC amplitude for the average of six traces for 1 min divided by that of the average of six traces for 1 min immediately before the conjunctive stimulation or the drug application.
# [2] = test system: Purkinje cells in cerebellar slices from mGlu1^CBC/CBC mice; assay: chemLTD recording (PF-EPSC) in Purkinje cells of acute cerebellar slices, mGlu1^CBC/CBC mice; settings: mGlu1CBC/CBC, individual cells
# Protocol: as §1, §2, §3, §4, §5
# [3] = test system: Purkinje cells in cerebellar slices from mGlu1^CBC/+ mice; assay: chemLTD recording (PF-EPSC) in Purkinje cells of acute cerebellar slices, mGlu1^CBC/+ mice; settings: mGlu1CBC/+, individual cells
# Protocol: as §1, §2, §3, §4, §5
structure (smiles),measurement,setting,value
Cc1ccnc(-c2cc(COCCCS(=O)(=O)[O-])ccn2)c1.[Cl][Pd][Cl].[Na+] [Pd(sulfo-bpy)],PF-EPSC amplitude relative to time 0,[1]; time 23 min,0.7917 and 0.9349 and 1.052 and 0.9311
same,PF-EPSC amplitude relative to time 0,[1]; time 24 min,1.079 and 0.8774 and 0.8838 and 1.117 and 0.7448 and 0.8818 and 1.061 and 1.065
same,PF-EPSC amplitude relative to time 0,[1]; time 25 min,1.072 and 0.8039 and 0.7804 and 1.073 and 0.7598 and 0.9701 and 1.143 and 0.9212
same,PF-EPSC amplitude relative to time 0,[1]; time 26 min,1.036 and 0.8938 and 0.875 and 1.146 and 0.8379 and 0.8585 and 1.035 and 0.9704
same,PF-EPSC amplitude relative to time 0,[1]; time 27 min,0.8542 and 0.878 and 0.8042 and 1.138 and 0.8864 and 0.9374 and 0.9944 and 0.9213
same,PF-EPSC amplitude relative to time 0,[1]; time 28 min,1.174 and 0.8151 and 0.9718 and 1.243 and 0.9188 and 0.9457 and 0.9397 and 0.9758
same,PF-EPSC amplitude relative to time 0,[1]; time 29 min,1.275 and 0.8047 and 1.082 and 1.134 and 0.9706 and 0.9397 and 1.063 and 0.9016
same,PF-EPSC amplitude relative to time 0,[1]; time 30 min,1.209 and 0.9826 and 0.9243 and 0.8821 and 0.9035 and 0.6989 and 0.9406 and 0.9459
same,PF-EPSC amplitude relative to time 0,[1]; time 31 min,1.096 and 0.9734 and 0.9056 and 0.715 and 0.9557 and 1.068 and 0.9594 and 0.951
same,PF-EPSC amplitude relative to time 0,[1]; time 32 min,1.227 and 1.079 and 0.873 and 1.19 and 0.8908 and 0.9497 and 1.059 and 0.9301
same,PF-EPSC amplitude relative to time 0,[1]; time 33 min,1.2674 and 0.9682 and 0.8905 and 1.006 and 0.8768 and 0.8911 and 0.9085 and 0.9413
same,PF-EPSC amplitude relative to time 0,[1]; time 34 min,1.172 and 0.8882 and 0.887 and 1.117 and 0.8783 and 1.139 and 0.9717 and 0.9285
same,PF-EPSC amplitude relative to time 0,[1]; time 35 min,1.249 and 0.8069 and 0.9633 and 1.305 and 0.9135 and 0.9768 and 1.001 and 0.9489
same,PF-EPSC amplitude relative to time 0,[2]; time 20 min,0.6603 and 0.6245 and 0.9332 and 0.8291 and 0.8101 and 0.5256 and 0.7044 and 0.9643 and 0.594 and 0.5093
same,PF-EPSC amplitude relative to time 0,[2]; time 21 min,0.8175 and 0.7771 and 0.6526 and 0.9089 and 0.7545 and 0.826 and 0.5903 and 0.6292 and 0.9028 and 0.6495 and 0.5151
same,PF-EPSC amplitude relative to time 0,[2]; time 22 min,0.9143 and 0.7146 and 0.683 and 1.087 and 0.786 and 0.6558 and 0.5944 and 0.6587 and 0.8562 and 0.6106 and 0.483
same,PF-EPSC amplitude relative to time 0,[2]; time 23 min,0.7184 and 0.6752 and 0.6612 and 0.9997 and 0.7861 and 0.7879 and 0.6624 and 0.6243 and 0.8711 and 0.6376 and 0.5034
same,PF-EPSC amplitude relative to time 0,[2]; time 24 min,0.6808 and 0.6538 and 0.6539 and 1.034 and 0.7802 and 0.6909 and 0.618 and 0.6832 and 0.8294 and 0.5919 and 0.4725
same,PF-EPSC amplitude relative to time 0,[2]; time 25 min,0.7046 and 0.7563 and 0.6659 and 1.1895 and 0.7183 and 0.7201 and 0.6197 and 0.6585 and 0.9079 and 0.6113 and 0.5126
same,PF-EPSC amplitude relative to time 0,[2]; time 26 min,0.6771 and 0.7413 and 0.7095 and 1.035 and 0.6929 and 0.7788 and 0.6126 and 0.6278 and 0.8506 and 0.6022 and 0.45
same,PF-EPSC amplitude relative to time 0,[2]; time 27 min,0.6315 and 0.7109 and 0.6743 and 1.171 and 0.7555 and 0.8041 and 0.6251 and 0.5864 and 0.7957 and 0.6459 and 0.4236
same,PF-EPSC amplitude relative to time 0,[2]; time 28 min,0.6819 and 0.685 and 0.6795 and 1.126 and 0.6709 and 0.691 and 0.6293 and 0.5103 and 0.8053 and 0.5809 and 0.3534
same,PF-EPSC amplitude relative to time 0,[2]; time 29 min,0.6577 and 0.6541 and 0.7016 and 1.16 and 0.6685 and 0.6764 and 0.6466 and 0.5951 and 0.7476 and 0.5988 and 0.5222
same,PF-EPSC amplitude relative to time 0,[2]; time 30 min,0.6265 and 0.7297 and 0.6719 and 1.173 and 0.6769 and 0.6232 and 0.5876 and 0.5996 and 0.8849 and 0.6207 and 0.4079
same,PF-EPSC amplitude relative to time 0,[2]; time 31 min,0.6315 and 0.5851 and 0.6853 and 1.165 and 0.7105 and 0.6077 and 0.6511 and 0.6486 and 0.8265 and 0.605 and 0.548
same,PF-EPSC amplitude relative to time 0,[2]; time 32 min,0.6195 and 0.6305 and 0.6584 and 1.111 and 0.6418 and 0.7012 and 0.6175 and 0.5917 and 0.7819 and 0.6731 and 0.5877
same,PF-EPSC amplitude relative to time 0,[2]; time 33 min,1.073 and 0.6193 and 0.6562 and 1.159 and 0.6348 and 0.6169 and 0.6411 and 0.6031 and 0.7758 and 0.6345 and 0.5154
same,PF-EPSC amplitude relative to time 0,[2]; time 34 min,1.04 and 0.5461 and 1.165 and 1.14 and 0.5233 and 0.6196 and 0.5902 and 0.5519 and 0.7959 and 0.6789 and 0.4906
same,PF-EPSC amplitude relative to time 0,[2]; time 35 min,0.5461 and 0.5469 and 1.0767 and 1.071 and 0.653 and 0.5726 and 0.5871 and 0.6113 and 0.7703 and 0.8457 and 0.4521
same,PF-EPSC amplitude relative to time 0,[3]; time 23 min,0.6979 and 0.6667 and 0.5689 and 0.9423
same,PF-EPSC amplitude relative to time 0,[3]; time 24 min,0.6128 and 0.6246 and 0.8331 and 0.6906 and 0.6354 and 0.7352 and 0.6004 and 0.886
same,PF-EPSC amplitude relative to time 0,[3]; time 25 min,0.6769 and 0.5852 and 0.803 and 0.7179 and 0.6785 and 0.786 and 0.6614 and 0.8895
same,PF-EPSC amplitude relative to time 0,[3]; time 26 min,0.6177 and 0.5789 and 0.8177 and 0.7253 and 0.6666 and 0.798 and 0.6621 and 0.8822
same,PF-EPSC amplitude relative to time 0,[3]; time 27 min,0.5832 and 0.5989 and 0.8267 and 0.6955 and 0.7067 and 0.7231 and 0.6671 and 0.9062
same,PF-EPSC amplitude relative to time 0,[3]; time 28 min,0.6105 and 0.5989 and 0.8749 and 0.6877 and 0.5465 and 0.7224 and 0.6773 and 0.8986
